Experiment [1] deals with T1, SCP1, wild type, overexpressed (tag not stated for these experiments) (UniProt Q9GZU7).
T1 sequence (chain, palmitoylated in HEK293T cells (ABE assay); Cys44 and Cys45 the major sites): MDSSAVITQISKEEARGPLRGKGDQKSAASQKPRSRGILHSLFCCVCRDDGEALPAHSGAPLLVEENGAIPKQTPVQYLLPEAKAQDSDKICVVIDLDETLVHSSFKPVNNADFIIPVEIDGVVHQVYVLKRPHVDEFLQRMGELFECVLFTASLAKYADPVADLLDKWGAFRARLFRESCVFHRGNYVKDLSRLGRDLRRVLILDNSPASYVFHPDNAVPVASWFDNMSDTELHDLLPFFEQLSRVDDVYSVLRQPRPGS
Put plainly: co-IP; overexpressed SCP1 immunoprecipitated from HEK293T cells; endogenous AKT detected by immunoblotting.

In experiment [2] the target is T2, SCP1 (small CTD phosphatase 1), endogenous (human (endogenous in HEK293T)) (UniProt Q9GZU7).
T2 sequence (chain, palmitoylated in HEK293T cells (ABE assay); Cys44 and Cys45 the major sites): T1 sequence (chain, palmitoylated in HEK293T cells (ABE assay); Cys44 and Cys45 the major sites)
Put plainly: co-IP; endogenous SCP1 immunoprecipitated from HEK293T cells with an anti-SCP1 antibody; associated endogenous AKT detected with an anti-AKT antibody.

Data on one substance can be found in PMC5404917.

These are yes or no findings as the source states them, for the method shown. In cells and extracts the contact can be indirect. Binding can be weak; no strength is given. For some assays here: Where a sequence is shown, tags or fusion partners need not be part of it.

For “AKT, endogenous (human (endogenous in HEK293T)) (enzyme)”, the binding result in experiment [1] and in experiment [2] was “binds” in each case.
